Measured values published in US20240368557A1, “STEM CELL-DERIVED ALPHA CELLS AND METHODS OF GENERATING SAME” (President and Fellows of Harvard College, priority 2018, published 2024).
“Also recorded” adds a separate entry of the source. At least one structure is not confirmed: it was looked up by name or label, or the drawing left a doubt.

Tested on: SC-alpha cells
Experiment: glucagon secretion of SC-alpha cells with glucagon secretion modulators
Type: cell-based, human
Description: To evaluate the ability of SC-alpha cells to respond to physiological conditions, we screened a number of glucagon secretion modulators and evaluated the effect on glucagon secretion. In the human islet, alpha cells secrete glucagon in response to low glucose conditions. […] Additionally, alpha cells respond to paracrine inhibitory signaling from delta cells through the hormone somatostatin resulting in suppressed glucagon secretion.
A number of pharmacological compounds have been developed to modulate glucagon secretion. We evaluated the effect of these compounds on SC-alpha cells to determine how well SC-alpha cells recapitulate the functional response of alpha cells (FIG. 4C).
Human islets or differentiated polyhormonal or SC-alpha cells were washed twice in low-glucose (2.8 mM) Krebs Ringer (KRB) buffer (128 mM NaCl, 5 mM KCl, 2.7 mM CaCl2, 1.2 mM MgSO4, 1 mM Na2HPO4, 1.2 mM KH2PO4, 5 mM NaHCO3, 10 mM HEPES, 0.1% BSA in milliQ). Cells were then loaded into 24 well transwell inserts and fasted in low glucose KRB for 1 hour at 37° C. Clusters were washed once in low glucose KRB and then incubated in low glucose KRB for 1 hour at 37° C. […] Cells were then dispersed and counted using a vicell automated cell counter. Collected supernatants were analyzed by ELISA for Insulin and/or glucagon and normalized to cell number.

Structure (SMILES): C[C@H](N)C(=O)NCC(=O)N[C@H]1CSSC[C@@H](C(=O)O)NC(=O)[C@H](CO)NC(=O)[C@H]([C@@H](C)O)NC(=O)[C@H](Cc2ccccc2)NC(=O)[C@H]([C@@H](C)O)NC(=O)[C@H](CCCCN)NC(=O)[C@H](Cc2c[nH]c3ccccc23)NC(=O)[C@H](Cc2ccccc2)NC(=O)[C@H](Cc2ccccc2)NC(=O)[C@H](CC(N)=O)NC(=O)[C@H](CCCCN)NC1=O [somatostatin]
- glucagon secretion from SC-alpha cells: inhibited; also recorded: suppressed

Structure (SMILES): COc1ccc(C(=O)O[C@H]2CC[C@@]3(C)[C@@H]4CC[C@H]5[C@]6(O)C[C@H](O)[C@@]7(O)[C@@H](CN8C[C@@H](C)CC[C@H]8[C@@]7(C)O)[C@]6(O)C[C@@]53O[C@]24O)cc1OC [veratridine]
- glucagon secretion from SC-alpha cells: increase glucagon secretion
